Measured values as given in article doi:10.1101/2020.09.09.273011.
Where two headings read alike, the source gives them in different places. These are yes or no findings as the source states them, for the method shown. Binding seen in cells or lysates may run through a third protein. Some binding calls cover weakened binding; strength is not graded here. Where a sequence is shown, tags or fusion partners need not be part of it.

The chains behind the UniProt entries cited, without tags or fusion partners. Residues count along the entry.
UniProt Q91ZI0, residues 32-3301: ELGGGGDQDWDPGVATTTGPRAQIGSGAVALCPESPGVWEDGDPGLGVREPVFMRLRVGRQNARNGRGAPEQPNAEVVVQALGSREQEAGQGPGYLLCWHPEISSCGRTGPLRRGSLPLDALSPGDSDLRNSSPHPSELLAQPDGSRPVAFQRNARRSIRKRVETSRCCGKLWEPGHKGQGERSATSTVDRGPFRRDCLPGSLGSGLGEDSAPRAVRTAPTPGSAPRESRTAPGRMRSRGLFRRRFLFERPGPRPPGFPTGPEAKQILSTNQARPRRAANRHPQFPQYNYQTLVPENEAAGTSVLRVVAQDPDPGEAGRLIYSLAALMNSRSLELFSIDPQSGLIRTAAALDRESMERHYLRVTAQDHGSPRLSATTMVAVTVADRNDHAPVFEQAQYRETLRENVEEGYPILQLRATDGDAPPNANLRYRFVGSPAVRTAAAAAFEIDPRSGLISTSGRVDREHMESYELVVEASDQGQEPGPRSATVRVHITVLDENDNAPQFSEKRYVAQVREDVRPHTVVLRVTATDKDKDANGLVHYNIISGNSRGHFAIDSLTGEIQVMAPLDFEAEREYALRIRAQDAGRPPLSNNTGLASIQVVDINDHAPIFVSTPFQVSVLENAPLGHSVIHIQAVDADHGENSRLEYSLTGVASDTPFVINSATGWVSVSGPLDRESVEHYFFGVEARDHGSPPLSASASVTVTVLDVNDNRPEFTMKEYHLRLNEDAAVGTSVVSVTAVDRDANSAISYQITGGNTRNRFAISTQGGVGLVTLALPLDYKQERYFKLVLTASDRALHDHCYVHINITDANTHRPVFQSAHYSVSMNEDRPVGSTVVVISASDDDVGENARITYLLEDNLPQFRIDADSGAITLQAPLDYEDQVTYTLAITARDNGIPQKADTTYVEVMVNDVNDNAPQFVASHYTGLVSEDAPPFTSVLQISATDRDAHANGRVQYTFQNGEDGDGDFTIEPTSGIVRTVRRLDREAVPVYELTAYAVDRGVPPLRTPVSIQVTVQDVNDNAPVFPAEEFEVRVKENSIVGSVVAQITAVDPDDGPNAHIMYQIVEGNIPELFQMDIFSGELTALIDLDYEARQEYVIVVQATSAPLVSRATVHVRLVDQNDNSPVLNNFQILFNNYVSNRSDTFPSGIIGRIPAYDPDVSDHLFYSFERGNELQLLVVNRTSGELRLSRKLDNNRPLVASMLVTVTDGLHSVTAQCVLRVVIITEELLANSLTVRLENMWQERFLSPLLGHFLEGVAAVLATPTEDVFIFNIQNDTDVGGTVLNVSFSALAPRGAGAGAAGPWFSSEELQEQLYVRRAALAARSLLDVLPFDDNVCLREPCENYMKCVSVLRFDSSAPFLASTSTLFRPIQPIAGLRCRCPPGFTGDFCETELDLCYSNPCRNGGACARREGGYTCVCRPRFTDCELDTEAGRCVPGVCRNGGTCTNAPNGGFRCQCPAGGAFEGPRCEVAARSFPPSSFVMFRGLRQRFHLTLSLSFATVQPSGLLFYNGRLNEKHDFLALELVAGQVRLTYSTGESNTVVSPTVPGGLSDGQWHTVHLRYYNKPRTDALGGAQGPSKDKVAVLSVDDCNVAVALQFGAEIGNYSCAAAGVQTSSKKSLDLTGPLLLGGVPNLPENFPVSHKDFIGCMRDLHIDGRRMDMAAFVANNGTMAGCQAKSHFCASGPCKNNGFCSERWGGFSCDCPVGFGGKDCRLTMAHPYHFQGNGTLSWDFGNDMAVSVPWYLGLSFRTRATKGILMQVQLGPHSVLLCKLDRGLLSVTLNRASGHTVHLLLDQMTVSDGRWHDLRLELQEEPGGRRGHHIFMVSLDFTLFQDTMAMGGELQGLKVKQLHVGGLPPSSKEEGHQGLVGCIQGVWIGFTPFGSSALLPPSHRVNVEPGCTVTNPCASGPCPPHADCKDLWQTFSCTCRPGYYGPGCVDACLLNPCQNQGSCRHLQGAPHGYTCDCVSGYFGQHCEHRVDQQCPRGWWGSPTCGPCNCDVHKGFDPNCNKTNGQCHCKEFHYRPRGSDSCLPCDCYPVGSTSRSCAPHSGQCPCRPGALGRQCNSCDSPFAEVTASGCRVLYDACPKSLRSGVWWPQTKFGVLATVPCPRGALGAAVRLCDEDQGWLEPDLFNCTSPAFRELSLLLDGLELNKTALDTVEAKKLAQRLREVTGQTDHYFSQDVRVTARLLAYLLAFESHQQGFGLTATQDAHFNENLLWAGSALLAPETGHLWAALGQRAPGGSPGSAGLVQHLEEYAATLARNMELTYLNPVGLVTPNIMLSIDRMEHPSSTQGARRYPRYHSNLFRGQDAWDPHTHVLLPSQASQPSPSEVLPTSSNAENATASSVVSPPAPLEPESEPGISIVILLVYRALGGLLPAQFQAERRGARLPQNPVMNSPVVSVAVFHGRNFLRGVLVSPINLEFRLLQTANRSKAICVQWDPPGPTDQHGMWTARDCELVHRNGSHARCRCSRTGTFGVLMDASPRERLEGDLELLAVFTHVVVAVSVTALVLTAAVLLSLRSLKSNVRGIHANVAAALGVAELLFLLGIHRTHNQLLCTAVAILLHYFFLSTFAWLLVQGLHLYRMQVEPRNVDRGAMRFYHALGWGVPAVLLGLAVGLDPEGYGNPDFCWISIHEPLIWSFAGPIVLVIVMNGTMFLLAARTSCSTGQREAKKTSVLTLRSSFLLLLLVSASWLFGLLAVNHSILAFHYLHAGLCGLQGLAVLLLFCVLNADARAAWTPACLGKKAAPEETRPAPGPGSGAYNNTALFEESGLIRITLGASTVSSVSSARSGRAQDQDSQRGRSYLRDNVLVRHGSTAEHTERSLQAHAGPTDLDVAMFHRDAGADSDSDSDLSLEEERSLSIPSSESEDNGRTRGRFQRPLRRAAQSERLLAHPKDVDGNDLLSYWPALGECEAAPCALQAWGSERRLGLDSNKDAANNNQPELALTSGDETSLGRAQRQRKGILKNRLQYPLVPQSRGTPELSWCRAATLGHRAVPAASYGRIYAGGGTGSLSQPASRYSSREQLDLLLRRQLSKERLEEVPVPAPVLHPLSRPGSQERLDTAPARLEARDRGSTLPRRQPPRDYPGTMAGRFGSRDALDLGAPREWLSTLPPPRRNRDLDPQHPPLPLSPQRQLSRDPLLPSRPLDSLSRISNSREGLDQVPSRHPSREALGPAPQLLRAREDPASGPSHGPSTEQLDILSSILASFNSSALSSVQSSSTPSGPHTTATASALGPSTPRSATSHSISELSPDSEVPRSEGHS

B1: mouse Frizzled3 (Frizzled3-HA) (receptor, UniProt Q61086 23-666)
chain: HSLFSCEPITLRMCQDLPYNTTFMPNLLNHYDQQTAALAMEPFHPMVNLDCSRDFRPFLCALYAPICMEYGRVTLPCRRLCQRAYSECSKLMEMFGVPWPEDMECSRFPDCDEPYPRLVDLNLVGDPTEGAPVAVQRDYGFWCPRELKIDPDLGYSFLHVRDCSPPCPNMYFRREELSFARYFIGLISIICLSATLFTFLTFLIDVTRFRYPERPIIFYAVCYMMVSLIFFIGFLLEDRVACNASSPAQYKASTVTQGSHNKACTMLFMVLYFFTMAGSVWWVILTITWFLAAVPKWGSEAIEKKALLFHASAWGIPGTLTIILLAMNKIEGDNISGVCFVGLYDVDALRYFVLAPLCLYVVVGVSLLLAGIISLNRVRIEIPLEKENQDKLVKFMIRIGVFSILYLVPLLVVIGCYFYEQAYRGIWETTWIQERCREYHIPCPYQVTQMSRPDLILFLMKYLMALIVGIPSIFWVGSKKTCFEWASFFHGRRKKEIVNESRQVLQEPDFAQSLLRDPNTPIIRKSRGTSTQGTSTHASSTQLAMVDDQRSKAGSVHSKVSSYHGSLHRSRDGRYTPCSYRGMEERLPHGSMSRLTDHSRHSSSHRLNEQSRHSSIRDLSNNPMTHITHGTSMNRVIEEDGTSA
B2: Vangl2 (expression construct of the co-IP experiments) (protein, UniProt Q91ZD4 1-521)
chain: MDTESQYSGYSYKSGHSRSSRKHRDRRDRHRSKSRDGSRGDKSVTIQAPGEPLLDNESTRGDERDDNWGETTTVVTGTSEHSISHDDLTRIAKDMEDSVPLDCSRHLGVAAGAILALLSFLTPLAFLLLPPLLWREELEPCGTACEGLFISVAFKLLILLLGSWALFFRRPKASLPRVFVLRALLMVLVFLLVISYWLFYGVRILDARERSYQGVVQFAVSLVDALLFVHYLAVVLLELRQLQPQFTLKVVRSTDGASRFYNVGHLSIQRVAVWILEKYYHDFPVYNPALLNLPKSVLAKKVSGFKVYSLGEENSTNNSTGQSRAVIAAAARRRDNSHNEYYYEEAEHERRVRKRRARLVVAVEEAFTHIKRLQEEEQKNPREVMDPREAAQAIFASMARAMQKYLRTTKQQPYHTMESILQHLEFCITHDMTPKAFLERYLAAGPTIQYHKERWLAKQWTLVSEEPVTNGLKDGIVFLLKRQDFSLVVSTKKVPFFKLSEEFVDPKSHKFVMRLQSETSV

Assays:
Experiment in all cases: co-IP
[1] = target: T1, mouse Frizzled3 (Frizzled3-HA) (mouse) (UniProt Q61086)
T1 sequence: B1 chain

[2] = target: T1, mouse Frizzled3 (Frizzled3-HA) (mouse); remark: listed apart in the source
[3] = target: mouse Celsr3 (Celsr3-Flag) (mouse) (UniProt Q91ZI0)

| Molecule | binding [1] | binding [2] | binding [3] |
| --- | --- | --- | --- |
| mouse Celsr3 (Celsr3-Flag) (from UniProt Q91ZI0 32-3301) (receptor) | binds | binds |  |
| B1 |  |  | binds |
| B2 |  |  | binds |
